Laboratory results from PMC12408316, “Identification of galectin-9 and its antibacterial function in Yellow River carp (Cyprinus carpio haematopterus)” (Frontiers in Immunology, 2025).

Tested on: T1, rCcGal-9 (recombinant CcGal-9, galectin-9)
T1 construct: gene LOC109103103
Details: 20 µg rCcGal-9 preincubated with sugar 3 h; wells coated with S. aureus or A. hydrophila

Row | Structure (SMILES) | competitive ELISA: sugar inhibits rCcGal-9 binding to coated bacteria
1 | CC(=O)N[C@@H]1C(O)O[C@H](CO)[C@@H](O)[C@@H]1O (stereo partly drawn) [N-acetyl-D-mannosamine] | N-acetyl-D-mannosamine, L-fucose, D-mannose, D-glucose, D-galactose, D-xylose, sucrose, N-acetyl-D-glucosamine and L-rhamnose were capable of inhibiting
2 | C[C@@H]1OC(O)[C@@H](O)[C@H](O)[C@@H]1O (stereo partly drawn) [L-fucose] | nine distinct saccharides, with a notably higher affinity for L-fucose and D-mannose
3 | OC[C@H]1OC(O)[C@@H](O)[C@@H](O)[C@@H]1O (stereo partly drawn) [D-mannose] | nine distinct saccharides, with a notably higher affinity for L-fucose and D-mannose
4 | OC[C@H]1OC(O)[C@H](O)[C@@H](O)[C@H]1O (stereo partly drawn) [D-galactose] | D-galactose, D-xylose, sucrose, N-acetyl-D-glucosamine and L-rhamnose were capable of inhibiting
5 | OC[C@H]1O[C@@](CO)(O[C@H]2O[C@H](CO)[C@@H](O)[C@H](O)[C@H]2O)[C@@H](O)[C@@H]1O [sucrose] | sucrose, N-acetyl-D-glucosamine and L-rhamnose were capable of inhibiting
6 | OC[C@H]1OC(O)[C@H](O)[C@@H](O)[C@@H]1O (stereo partly drawn) [D-glucose] | D-glucose, D-galactose, D-xylose, sucrose, N-acetyl-D-glucosamine and L-rhamnose were capable of inhibiting
7 | CC(=O)N[C@H]1C(O)O[C@H](CO)[C@@H](O)[C@@H]1O (stereo partly drawn) [N-acetyl-D-glucosamine] | N-acetyl-D-glucosamine and L-rhamnose were identified as significant ligands of rCcGal-9
8 | C[C@@H]1OC(O)[C@H](O)[C@H](O)[C@H]1O (stereo partly drawn) [L-rhamnose] | N-acetyl-D-glucosamine and L-rhamnose were identified as significant ligands of rCcGal-9
9 | OC1OC[C@@H](O)[C@H](O)[C@H]1O (stereo partly drawn) [D-xylose] | D-xylose, sucrose, N-acetyl-D-glucosamine and L-rhamnose were capable of inhibiting
